Patent US6458872B1, “Benzotriazole UV absorbers having enhanced durability” (Ciba Specialty Chemicals Corporation, priority 1997, dated 2002)

How the values were obtained:
[1] = Yellowness index of injection molded polycarbonate plaques, MAKROLON 2608-1000 (Example 76); conditions: 0.3% UV absorber plus 0.08% Phosphite (Phosphite line: 0.08% alone), ASTM D-1925, average of ten plaques
[2] = Color change of polycarbonate films, 2000 hours, ASTM G26 method C (Example 87); conditions: polycarbonate film about 1 mil, 5% by weight UV absorber, 2000 hours Xenon Arc, versus unexposed films
[3] = Gloss retention of poly(butylene terephthalate) plaques, ASTM G26 method A, ASTM D523 (Example 85); conditions: poly(butylene terephthalate) with 1.00% titanium dioxide; P 0.50%, S 0.60%; gloss at 60°

Row | SMILES | Yellowness Index [1] | ΔYI [2] | Gloss Retention % after 500 hrs exposure [3] [%] | Gloss Retention % after 750 hrs exposure [3] [%]
1 | CC(C)(C)CC(C)(C)c1ccc(O)c(-n2nc3ccc(C(F)(F)F)cc3n2)c1 [BB, 5-trifluoromethyl-2-(2-hydroxy-5-tert-octylphenyl)-2H-benzotriazole] | 7.9 |  |  | 
2 | CC(C)(C)CC(C)(C)c1cc(Cc2cc(C(C)(C)CC(C)(C)C)cc(-n3nc4ccccc4n3)c2O)c(O)c(-n2nc3ccccc3n2)c1 [Compound B, 2,2′-Methylene-bis[6-(2H-benzotriazol-2-yl)-4-tert-octylphenol]] |  | 6.0 |  | 
3 | CC(C)(c1ccccc1)c1cc(-n2nc3ccccc3n2)c(O)c(C(C)(C)c2ccccc2)c1 [Compound P, 2-(2-hydroxy-3,5-di-α-cumylphenyl)-2H-benzotriazole] | 7.4 |  | 89 | 65
4 | CC(C)(C)CC(C)(C)c1cc(Cc2cc(C(C)(C)CC(C)(C)C)cc(-n3nc4ccc(C(F)(F)F)cc4n3)c2O)c(O)c(-n2nc3ccc(C(F)(F)F)cc3n2)c1 [Example 43, 2,2′-Methylene-bis[6-(5-trifluoromethyl-2H-benzotriazol-2-yl)-4-tert-octylphenol]] |  | 4.4 |  | 
5 | CC(C)(C)c1ccc(OP(Oc2ccc(C(C)(C)C)cc2C(C)(C)C)Oc2ccc(C(C)(C)C)cc2C(C)(C)C)c(C(C)(C)C)c1 [Phosphite, tris(2,4-di-tert-butylphenyl)phosphite] | 4.5 |  |  | 
6 | CC(C)(C)CC(C)(C)c1cc(-n2nc3ccc(C(F)(F)F)cc3n2)c(O)c(C(C)(C)c2ccccc2)c1 [S, 5-trifluoromethyl-2-(2-hydroxy-3-α-cumyl-5-tert-octylphenyl)-2H-benzotriazole] |  |  | 94 | 82
